One test concerns the target FLAG-BAG3^WT (human) (UniProt O95817). As to the kind of experiment: co-IP; anti-FLAG (M2) magnetic beads on the soluble fraction of HEK293 lysates expressing FLAG-BAG3 variants and Myc-HSPB8, 0.4% NP-40 buffer, 4 °C; in Fig. 5f cells treated with 0.5 μM JG-98, 5 μM YM-01 or DMSO.
The target of another test is FLAG-BAG3^P209L (human) (UniProt O95817). Described as above.

The chains behind the UniProt entries cited, without tags or fusion partners. Where a name states a change or a piece, a line headed by the entry shows the natural chain unless it says otherwise.
UniProt O95817: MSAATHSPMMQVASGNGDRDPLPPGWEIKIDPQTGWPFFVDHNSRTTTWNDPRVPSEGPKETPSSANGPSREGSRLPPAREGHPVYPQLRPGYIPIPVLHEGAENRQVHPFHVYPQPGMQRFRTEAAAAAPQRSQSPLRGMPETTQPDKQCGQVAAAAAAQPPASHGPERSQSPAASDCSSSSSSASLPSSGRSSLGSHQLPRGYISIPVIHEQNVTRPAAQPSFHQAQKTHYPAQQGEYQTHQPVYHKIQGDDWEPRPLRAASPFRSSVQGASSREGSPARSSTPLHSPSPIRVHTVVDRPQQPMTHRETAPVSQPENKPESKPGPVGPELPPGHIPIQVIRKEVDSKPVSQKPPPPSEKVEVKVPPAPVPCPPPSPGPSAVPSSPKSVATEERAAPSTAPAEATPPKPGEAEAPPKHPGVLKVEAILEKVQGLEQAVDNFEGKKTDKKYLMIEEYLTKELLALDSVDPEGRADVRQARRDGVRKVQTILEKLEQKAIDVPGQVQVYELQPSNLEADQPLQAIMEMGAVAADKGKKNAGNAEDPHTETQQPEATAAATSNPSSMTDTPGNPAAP

No constants are given. Whether binding was seen depends on the method and setting. In cells and extracts the contact can be indirect. Some entries that bind do so weakly or less than the wild type. Tags and fused reporters may be left off the sequences shown.

B1: Myc-HSPB8 (protein, UniProt Q9UJY1 1-196)
chain: MADGQMPFSCHYPSRLRRDPFRDSPLSSRLLDDGFGMDPFPDDLTASWPDWALPRLSSAWPGTLRSGMVPRGPTATARFGVPAEGRTPPPFPGEPWKVCVNVHSFKPEELMVKTKDGYVEVSGKHEEKQQEGGIVSKNFTKKIQLPAEVDPVTVFASLSPEGLLIIEAPQVPPYSTFGESSFNNELPQDSQEVTCT
B1: the binding result in the test with FLAG-BAG3^WT (human) and in the test with FLAG-BAG3^P209L (human) was “binds” in each case.

(Values after publication PMC6297355.)
